Results are given in words; binding and its absence hold for the method and conditions named. In cells and extracts the contact can be indirect.

The target in this assay is T1, Vangl1 (human (endogenous in HUVEC)) (UniProt Q8TAA9).
T1 sequence: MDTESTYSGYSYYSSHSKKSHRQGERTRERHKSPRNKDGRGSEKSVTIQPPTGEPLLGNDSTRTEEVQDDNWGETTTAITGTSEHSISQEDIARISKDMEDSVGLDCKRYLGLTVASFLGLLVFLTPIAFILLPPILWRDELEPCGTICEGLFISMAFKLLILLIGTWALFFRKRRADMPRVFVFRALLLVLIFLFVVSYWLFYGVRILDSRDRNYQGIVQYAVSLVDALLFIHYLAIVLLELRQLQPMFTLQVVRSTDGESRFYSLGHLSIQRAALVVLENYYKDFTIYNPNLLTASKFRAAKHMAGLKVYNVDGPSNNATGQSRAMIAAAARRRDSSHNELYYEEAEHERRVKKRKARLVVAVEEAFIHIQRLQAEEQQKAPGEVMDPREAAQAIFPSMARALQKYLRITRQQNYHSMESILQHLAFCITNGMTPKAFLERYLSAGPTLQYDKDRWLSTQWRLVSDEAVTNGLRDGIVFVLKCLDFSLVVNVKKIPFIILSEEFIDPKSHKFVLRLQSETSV
Put plainly: pull-down.

B1: VE-Cadherin (protein, UniProt P33151 48-784)
chain: DWIWNQMHIDEEKNTSLPHHVGKIKSSVSRKNAKYLLKGEYVGKVFRVDAETGDVFAIERLDRENISEYHLTAVIVDKDTGENLETPSSFTIKVHDVNDNWPVFTHRLFNASVPESSAVGTSVISVTAVDADDPTVGDHASVMYQILKGKEYFAIDNSGRIITITKSLDREKQARYEIVVEARDAQGLRGDSGTATVLVTLQDINDNFPFFTQTKYTFVVPEDTRVGTSVGSLFVEDPDEPQNRMTKYSILRGDYQDAFTIETNPAHNEGIIKPMKPLDYEYIQQYSFIVEATDPTIDLRYMSPPAGNRAQVIINITDVDEPPIFQQPFYHFQLKENQKKPLIGTVLAMDPDAARHSIGYSIRRTSDKGQFFRVTKKGDIYNEKELDREVYPWYNLTVEAKELDSTGTPTGKESIVQVHIEVLDENDNAPEFAKPYQPKVCENAVHGQLVLQISAIDKDITPRNVKFKFILNTENNFTLTDNHDNTANITVKYGQFDREHTKVHFLPVVISDNGMPSRTGTSTLTVAVCKCNEQGEFTFCEDMAAQVGVSIQAVVAILLCILTITVITLLIFLRRRLRKQARAHGKSVPEIHEQLVTYDEEGGGEMDTTSYDVSVLNSVRRGGAKPPRPALDARPSLYAQVQKPPRHAPGAHGGPGEMAAMIEVKKDEADHDGDGPPYDTLHIYGYEGSESIAESLSSLGTDSSDSDVDYDFLNDWGPRFKMLAELYGSDPREELLY
Consider B1, for which the binding entry was “no binding”.

The values are drawn from publication doi:10.1101/2024.06.25.600357.
